No constants are given. Whether binding was seen depends on the method and setting. Binding seen in cells or lysates may run through a third protein. A yes stands for co-enrichment or nearness to the bait. Other partners may have been found.
How the values were obtained:
Ku70 S155A-BioID2-HA = Ku70 S155A-BioID2-HA (UniProt P12956); test: proximity labelling; BioID2 in Flp-In T-REx 293 stable cell lines; 8 h doxycycline (1 ug/mL), then 50 uM biotin for 24 h; biotinylated proteins identified by LC-ESI-MS/MS; three biological replicates; filtered against parental T-REx 293 and NLS-BioID2 controls and by SAINTexpress
Ku70 S155D-BioID2-HA = Ku70 S155D-BioID2-HA (UniProt P12956); test: as above

Sequences of proteins named here, by UniProt entry; tags and fusion partners are left off. A change or cut given only in a name is not applied to a line headed by its entry.
UniProt P12956: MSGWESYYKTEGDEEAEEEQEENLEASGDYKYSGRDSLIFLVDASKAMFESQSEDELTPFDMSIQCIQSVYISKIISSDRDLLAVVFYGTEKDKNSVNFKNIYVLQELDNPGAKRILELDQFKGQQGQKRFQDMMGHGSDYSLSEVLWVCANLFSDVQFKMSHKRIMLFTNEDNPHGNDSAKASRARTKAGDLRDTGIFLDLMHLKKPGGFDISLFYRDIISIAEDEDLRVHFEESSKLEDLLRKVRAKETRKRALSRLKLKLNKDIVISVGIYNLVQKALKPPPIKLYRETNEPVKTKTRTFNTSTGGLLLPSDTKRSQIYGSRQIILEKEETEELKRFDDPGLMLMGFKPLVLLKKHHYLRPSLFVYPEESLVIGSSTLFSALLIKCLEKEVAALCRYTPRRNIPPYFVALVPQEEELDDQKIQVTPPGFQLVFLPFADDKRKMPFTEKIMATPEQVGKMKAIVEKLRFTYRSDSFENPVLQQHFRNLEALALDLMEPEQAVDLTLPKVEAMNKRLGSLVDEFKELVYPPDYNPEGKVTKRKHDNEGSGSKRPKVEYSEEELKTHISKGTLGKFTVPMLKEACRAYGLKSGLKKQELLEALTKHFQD

binding (Ku70 S155A-BioID2-HA)	binding (Ku70 S155D-BioID2-HA)	Binder
binds	–	NUDCD2 (protein, UniProt Q8WVJ2 1-157) MSAPFEERSGVVPCGTPWGQWYQTLEEVFIEVQVPPGTRAQDIQCGLQSRHVALSVGGREILKGKLFDSTIADEGTWTLEDRKMVRIVLTKTKRDAANCWTSLLESEYAADPWVQDQMQRKLTLERFQKENPGFDFSGAEISGNYTKGGPDFSNLEK
–	binds	Borealin (protein, UniProt Q53HL2 1-280) MAPRKGSSRVAKTNSLRRRKLASFLKDFDREVEIRIKQIESDRQNLLKEVDNLYNIEILRLPKALREMNWLDYFALGGNKQALEEAATADLDITEINKLTAEAIQTPLKSAKTRKVIQVDEMIVEEEEEEENERKNLQTARVKRCPPSKKRTQSIQGKGKGKRSSRANTVTPAVGRLEVSMVKPTPGLTPRFDSRVFKTPGLRTPAAGERIYNISGNGSPLADSKEIFLTVPVGGGESLRLLASDLQRHSIAQLDPEALGNIKKLSNRLAQICSSIRTHK
